Measured values as given in article PMC5059642.
No constants are given. Whether binding was seen depends on the method and setting. In cells and extracts the contact can be indirect. Sequences can lack the tags named with a protein.

Protein sequences, listed by entry. Tags and fused reporters are not part of them.
UniProt P11142: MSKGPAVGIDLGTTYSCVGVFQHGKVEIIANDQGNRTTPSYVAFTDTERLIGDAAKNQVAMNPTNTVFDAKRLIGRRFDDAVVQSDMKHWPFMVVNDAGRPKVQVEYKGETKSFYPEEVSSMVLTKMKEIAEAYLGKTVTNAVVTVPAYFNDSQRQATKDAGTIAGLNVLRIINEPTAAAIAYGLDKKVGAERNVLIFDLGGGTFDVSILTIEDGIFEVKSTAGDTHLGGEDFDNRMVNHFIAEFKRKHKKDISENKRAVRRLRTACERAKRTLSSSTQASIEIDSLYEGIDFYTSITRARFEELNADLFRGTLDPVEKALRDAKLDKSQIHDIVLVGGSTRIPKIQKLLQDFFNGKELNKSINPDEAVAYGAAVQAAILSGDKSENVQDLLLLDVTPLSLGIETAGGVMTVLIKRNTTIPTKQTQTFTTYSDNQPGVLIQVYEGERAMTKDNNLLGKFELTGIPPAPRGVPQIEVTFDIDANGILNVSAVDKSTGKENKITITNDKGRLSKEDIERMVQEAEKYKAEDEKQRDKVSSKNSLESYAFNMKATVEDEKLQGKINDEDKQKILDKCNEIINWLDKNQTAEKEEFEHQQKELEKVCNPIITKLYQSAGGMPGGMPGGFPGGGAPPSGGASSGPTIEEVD

Molecular target: T1, FLAG-ARD1 (human) (UniProt P41227)
T1 sequence: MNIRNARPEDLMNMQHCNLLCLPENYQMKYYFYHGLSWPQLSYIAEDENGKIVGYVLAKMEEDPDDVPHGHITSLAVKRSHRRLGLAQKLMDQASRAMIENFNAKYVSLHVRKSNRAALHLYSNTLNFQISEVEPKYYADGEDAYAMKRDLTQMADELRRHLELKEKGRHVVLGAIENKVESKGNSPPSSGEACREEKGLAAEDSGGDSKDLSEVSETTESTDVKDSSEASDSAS
Assay: co-IP; FLAG-ARD1 precipitated from HEK293T cells; co-precipitation of Myc-Hsp70 or Myc-Hsc70 by western blotting

Substance: Myc-Hsc70 (from UniProt P11142 1-646)
- binding: no binding
